Source: PubChem BioAssay AID540276 (National Center for Advancing Translational Sciences (NCATS), 2011)
In all, about 300,000 compounds went through this assay and about 5,400 (1.8%) were called active. Inconclusive means that the source gave no clear call. Such entries were picked first, then a sample of the others. Calls come from the whole dose curve; tested in HEK293 cells. Potencies beside an inconclusive call are fits to weak or partial responses and may not hold up.

test: qHTS for inhibitors of binding or entry into cells for Marburg Virus; details: Marburg virus pseudotyped entry inhibition, cell reporter; activity change, negative = inhibition: at 37.8 µM (top of the series) unless noted
% is set by controls: 0 for no effect and ±100 for the full control effect; potency is the fitted concentration of half-maximal effect.

Structure (SMILES) | Potency | activity change, negative = inhibition
COc1ccc(C2=NC3(CCCCC3)N(CC(=O)Nc3ccc(C(C)C)cc3)C2=O)cc1 | active: 11.2 µM | –
Cc1nc2cc3ccccc3cc2n1C | inconclusive: 10 µM [activator, partial curve, poor fit] | –
CCCCNC(=O)CCCCn1c(=S)[nH]c2c([nH]c3ccc(OC)cc32)c1=O | inconclusive: 0.82 µM [inhibitor, full curve, poor fit] | –
O=C(Nc1nnc(C2COc3ccccc3O2)o1)c1ccc(F)cc1 (configuration not stated) | inconclusive: 6.51 µM [inhibitor, full curve, poor fit] | –
O=C(N/N=C/c1c[nH]c2ccccc12)c1cccc([N+](=O)[O-])c1 | inconclusive: 7.08 µM [activator, full curve, poor fit] | –
O=c1[nH]c(NCCO)nc2ncn(Cc3ccccc3)c12 | inconclusive: 0.0046 µM [activator, full curve, poor fit] | –
COc1cccc(-n2c(SCC(=O)Nc3cc(C)ccc3C)nc3c(oc4ccccc43)c2=O)c1 | inconclusive: 6.31 µM [inhibitor, single point] | –
CCN(c1ccccc1)S(=O)(=O)c1ccc(OC)c(NC(=O)c2ccccc2OC)c1 | – | inactive: 17.9%
Cc1cc(C)c(/C([O-])=C(/C(=S)Nc2ccc(SC(F)F)cc2)[n+]2ccccc2)cc1C | inconclusive: 7.94 µM [inhibitor, partial curve] | –
C=COc1ccc(N2C(=O)c3ccccc3OC2C)cc1 (configuration not stated) | inconclusive: 0.562 µM [inhibitor, full curve, poor fit] | –
Cc1ccc(NC(=O)NCCN2C(=O)C3C4C=CC(C4)C3C2=O)cc1 (configuration not stated) | – | inactive: 1.51%
CC(NC(=O)c1ccc(Cn2cc([N+](=O)[O-])cn2)o1)c1ccccc1 (configuration not stated) | inconclusive: 5.01 µM [inhibitor, partial curve] | –
CC(C)(C)c1ccc(OCCC(=O)OCC(=O)NC2CCCCC2)cc1 | inconclusive: 7.94 µM [activator, partial curve, poor fit] | –
Cc1ccc(-c2nc3nc(C)cc(N4CCN(c5cc(Cl)ccc5C)CC4)n3n2)cc1 | – | inactive: 9.13% [at 46.1 µM]
COc1ccc(C(=O)/C=C2\Sc3ccccc3N2C)cc1 | inconclusive: 1.78 µM [inhibitor, full curve, poor fit] | –
COc1cccc(CNC(=O)COC(=O)c2c(C)nn(-c3ccccc3)c2Cl)c1 | – | inactive: -19.7%
O=[N+]([O-])c1ccc(P(=O)(Cc2ccccc2)c2ccccc2O)cc1 (configuration not stated) | – | inactive: 3.4% [at 46.1 µM]
Cc1noc(C)c1C(=O)Nc1cc(S(=O)(=O)N2CCCCC2)ccc1N(C)C | – | inactive: 1.07%
O=C(/C=C/c1ccc(Cl)cc1Cl)Nc1cccc(S(=O)(=O)NC2=NCCC2)c1 | active: 13 µM | –
COc1cccc2c1OCC/C2=N\NC(=O)COc1ccc(C)cc1 | inconclusive: 6.31 µM [activator, single point] | –
O=C(CN1C(=O)NC2(CCCC2)C1=O)Nc1nc2ccccc2[nH]1 | inconclusive: 1.26 µM [activator, single point] | –

Structure (SMILES) | Potency | activity change, negative = inhibition
CCCN(Cc1cccs1)C(=O)Nc1cc(Cl)c(OC)cc1OC | – | inactive: -4.14% [at 46.1 µM]
CCCN(CCC)CCCNC(=O)Cn1cnc2sc(C)c(S(=O)(=O)N3CCCCC3)c2c1=O | inactive | –
Cc1ccc2[nH]c(=O)c(CN(C)C(=O)c3ccccn3)cc2c1 | inconclusive: 2.24 µM [inhibitor, partial curve, poor fit] | –
CC1(c2ccccc2)NC(=O)N(CC(=O)Nc2ccc([N+](=O)[O-])cc2)C1=O (configuration not stated) | inconclusive: 1.58 µM [inhibitor, partial curve, poor fit] | –
c1ccc(CNc2nc(N3CCN(Cc4ccccc4)CC3)nc3ccccc23)cc1 | inconclusive: 3.16 µM [inhibitor, partial curve, poor fit] | –
Cc1ccc2sc(NC(=O)CSc3nc(C)cc(C)c3C#N)nc2c1 | inconclusive: 11.6 µM [inhibitor, partial curve, poor fit] | –
Cc1ccc(C(C(=O)NCCc2ccccc2)N(C(=O)c2csnn2)C2CC2)cc1 (configuration not stated) | inconclusive: 5.62 µM [activator, single point] | –
CCC12C=CCN3CCC4(c5cc(Br)c(OC)cc5N(C)C4C(O)(C(=O)OC)C1OC(C)=O)C32 (configuration not stated) | inconclusive: 3.55 µM [inhibitor, full curve] | –
O=C(COC(=O)c1ccccc1C(=O)c1ccccc1)Nc1ccc(SC(F)F)cc1 | inconclusive: 29.1 µM [inhibitor, single point] | –
Cc1cccc(C(=O)OCC(=O)N2CCc3ccccc3C2)c1O | inconclusive: 20 µM [activator, partial curve, poor fit] | –
Cc1cc2nc(-c3ccc(SCC(=O)N4CCOCC4)nc3)[nH]c2cc1C | inconclusive: 29.1 µM [inhibitor, single point] | –
COc1ccc(-c2nn3c(-c4ccccn4)nnc3s2)cc1OC | inconclusive: 0.146 µM [inhibitor, partial curve, poor fit] | –
CCc1ccc(NC(=O)c2cccnc2)cc1 | inconclusive: 0.326 µM [activator, full curve] | –
O=C(Nc1ccc(Cl)c(C(F)(F)F)c1)NC1CC2CCCC(C1)N2Cc1ccccc1 (configuration not stated) | active: 8.91 µM | –
Cc1ccc(NC(=O)c2ccc3c(c2)OCCO3)cc1C | inconclusive: 7.08 µM [inhibitor, full curve, poor fit] | –
COC(=O)c1sc(=S)n(-c2cccc(Cl)c2)c1N | – | inactive: 10.9%
N=c1c2c(-c3ccccc3)c(-c3ccccc3)n(Cc3ccco3)c2ncn1CCCO | active: 5.62 µM | –
CCCCn1c(=O)n(C)c(=O)c2c3c(sc21)COC(C)(C)C3 | inconclusive: 7.08 µM [inhibitor, full curve, poor fit] | –
Cc1c(C(=O)O)c2cc(O)ccc2n1-c1ccccc1 | inconclusive: 4.11 µM [activator, partial curve, poor fit] | –
Cc1cccc(C(=O)NCC2CCCO2)c1 (configuration not stated) | inconclusive: 35.5 µM [activator, single point] | –
CN(CC(=O)Nc1ccc(C(N)=O)cc1)CC(=O)Nc1ccccc1Cl | inconclusive: 35.5 µM [inhibitor, single point] | –

Nothing new here: eleven of the compounds above.
Structure (SMILES) | Potency | activity change, negative = inhibition
O=C(COC(=O)c1ccccc1C(=O)c1ccccc1)Nc1ccc(SC(F)F)cc1 | inconclusive: 29.1 µM [inhibitor, single point] | –
Cc1cccc(C(=O)OCC(=O)N2CCc3ccccc3C2)c1O | inconclusive: 20 µM [activator, partial curve, poor fit] | –
Cc1cc2nc(-c3ccc(SCC(=O)N4CCOCC4)nc3)[nH]c2cc1C | inconclusive: 29.1 µM [inhibitor, single point] | –
COc1ccc(-c2nn3c(-c4ccccn4)nnc3s2)cc1OC | inconclusive: 0.146 µM [inhibitor, partial curve, poor fit] | –
CCc1ccc(NC(=O)c2cccnc2)cc1 | inconclusive: 0.326 µM [activator, full curve] | –
O=C(Nc1ccc(Cl)c(C(F)(F)F)c1)NC1CC2CCCC(C1)N2Cc1ccccc1 (configuration not stated) | active: 8.91 µM | –
Cc1ccc(NC(=O)c2ccc3c(c2)OCCO3)cc1C | inconclusive: 7.08 µM [inhibitor, full curve, poor fit] | –
COC(=O)c1sc(=S)n(-c2cccc(Cl)c2)c1N | – | inactive: 10.9%
N=c1c2c(-c3ccccc3)c(-c3ccccc3)n(Cc3ccco3)c2ncn1CCCO | active: 5.62 µM | –
CCCCn1c(=O)n(C)c(=O)c2c3c(sc21)COC(C)(C)C3 | inconclusive: 7.08 µM [inhibitor, full curve, poor fit] | –
Cc1c(C(=O)O)c2cc(O)ccc2n1-c1ccccc1 | inconclusive: 4.11 µM [activator, partial curve, poor fit] | –
